Measured values reported in US9128097B2, “Method and kit for assessing viable cells” (ChemoMetec A/S, priority 2008, dated 2015).

Assay: Fluorescence spectra of maleimide with -SH reagents (spectrofluorophotometer)
Format: physicochemical
Conditions: for fluorescence on mixing with GSH: 0.33 μg/mL compound with GSH 167 μg/mL; for fluorescence on mixing with GSSG: 0.33 μg/mL compound with GSSG 167 μg/mL; for fluorescence of the compound alone: 0.33 μg/mL in distilled water

SMILES | fluorescence on mixing with DTT (0.33 μg/mL compound with DTT 167 μg/mL) | fluorescence on mixing with GSH | fluorescence on mixing with GSSG | fluorescence of the compound alone
O=C1C=CC(=O)N1c1c2ccccc2nc2ccccc12 [NAM, N-(9-acridinyl)maleimide] | strong synergistic effect with respect to fluorescence | strong synergistic effect with respect to fluorescence | not GSSG | very weak fluorescence
O=C1C=CC(=O)N1c1ccc2ccc3cccc4ccc1c2c34 [PM, N-(1-Pyrenyl)maleimide] | – | strong synergistic effect with respect to fluorescence | not GSSG | very weak fluorescence
